Experimental data as given in paper PMC12240075.
No constants are given. Whether binding was seen depends on the method and setting. Binding seen in cells or lysates may run through a third protein. Some binding calls cover weakened binding; strength is not graded here. Tags and fused reporters may be left off the sequences shown.

The chains behind the UniProt entries cited, without tags or fusion partners.
UniProt P11142: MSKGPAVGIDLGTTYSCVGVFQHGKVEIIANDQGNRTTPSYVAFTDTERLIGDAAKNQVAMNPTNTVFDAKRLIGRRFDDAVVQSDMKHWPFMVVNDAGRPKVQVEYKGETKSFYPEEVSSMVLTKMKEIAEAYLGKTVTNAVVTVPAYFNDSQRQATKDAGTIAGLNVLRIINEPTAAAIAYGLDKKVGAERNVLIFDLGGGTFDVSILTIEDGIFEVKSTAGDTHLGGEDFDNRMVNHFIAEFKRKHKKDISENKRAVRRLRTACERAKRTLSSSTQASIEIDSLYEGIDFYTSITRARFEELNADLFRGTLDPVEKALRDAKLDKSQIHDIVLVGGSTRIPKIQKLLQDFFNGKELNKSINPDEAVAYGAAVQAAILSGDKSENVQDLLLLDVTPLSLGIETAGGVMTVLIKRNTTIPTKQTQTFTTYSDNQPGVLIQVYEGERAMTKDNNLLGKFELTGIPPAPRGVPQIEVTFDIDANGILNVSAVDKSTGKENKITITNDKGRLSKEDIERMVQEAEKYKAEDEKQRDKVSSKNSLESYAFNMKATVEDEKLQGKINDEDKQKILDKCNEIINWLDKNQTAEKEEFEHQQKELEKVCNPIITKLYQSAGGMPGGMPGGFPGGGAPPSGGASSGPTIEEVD

Key:
[1] = biological target: T1, HA-YEATS2-WT (UniProt Q9ULM3); assay: co-IP; both proteins tagged and overproduced in transfected cells (HEK293T); immunoprecipitation by the tag, immunoblot; lysis buffer 200 mM NaCl, 1 mM EDTA, 20 mM Tris (pH 7.5), 0.5% NP-40
T1 sequence: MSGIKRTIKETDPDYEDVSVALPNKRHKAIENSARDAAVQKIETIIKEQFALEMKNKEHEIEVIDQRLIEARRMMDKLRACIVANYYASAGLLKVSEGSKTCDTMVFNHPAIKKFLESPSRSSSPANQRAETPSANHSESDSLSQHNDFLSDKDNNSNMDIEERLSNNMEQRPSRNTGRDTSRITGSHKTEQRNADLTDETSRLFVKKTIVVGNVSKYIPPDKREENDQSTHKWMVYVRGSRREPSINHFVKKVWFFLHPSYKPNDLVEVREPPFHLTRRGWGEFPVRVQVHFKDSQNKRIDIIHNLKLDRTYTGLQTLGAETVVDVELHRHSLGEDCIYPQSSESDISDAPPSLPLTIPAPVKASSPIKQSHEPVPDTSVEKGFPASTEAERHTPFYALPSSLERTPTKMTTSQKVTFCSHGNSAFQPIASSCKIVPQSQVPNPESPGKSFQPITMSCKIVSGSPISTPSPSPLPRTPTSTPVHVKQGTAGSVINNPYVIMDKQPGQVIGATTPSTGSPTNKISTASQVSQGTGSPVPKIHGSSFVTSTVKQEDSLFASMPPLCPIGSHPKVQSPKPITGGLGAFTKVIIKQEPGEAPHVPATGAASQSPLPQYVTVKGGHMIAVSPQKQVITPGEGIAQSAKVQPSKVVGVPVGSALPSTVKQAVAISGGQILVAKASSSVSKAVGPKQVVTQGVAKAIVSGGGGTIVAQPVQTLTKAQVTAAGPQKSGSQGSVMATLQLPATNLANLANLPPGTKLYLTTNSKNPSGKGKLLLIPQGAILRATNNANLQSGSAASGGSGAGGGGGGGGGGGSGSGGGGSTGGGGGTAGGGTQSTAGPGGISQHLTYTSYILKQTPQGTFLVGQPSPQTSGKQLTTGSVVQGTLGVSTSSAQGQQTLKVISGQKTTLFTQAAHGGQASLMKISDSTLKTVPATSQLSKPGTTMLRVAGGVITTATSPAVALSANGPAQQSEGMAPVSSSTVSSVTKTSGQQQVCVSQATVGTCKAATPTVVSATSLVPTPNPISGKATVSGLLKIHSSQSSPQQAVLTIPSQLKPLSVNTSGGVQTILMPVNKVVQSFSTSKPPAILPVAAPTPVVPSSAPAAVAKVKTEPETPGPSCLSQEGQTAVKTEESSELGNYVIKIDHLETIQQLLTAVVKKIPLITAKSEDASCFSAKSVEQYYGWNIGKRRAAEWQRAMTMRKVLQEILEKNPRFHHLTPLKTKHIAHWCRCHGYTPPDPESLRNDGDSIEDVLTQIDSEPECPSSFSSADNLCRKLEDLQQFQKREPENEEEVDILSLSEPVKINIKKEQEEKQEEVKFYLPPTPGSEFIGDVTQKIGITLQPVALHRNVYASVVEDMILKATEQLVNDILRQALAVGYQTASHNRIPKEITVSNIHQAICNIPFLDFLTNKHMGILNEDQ

[2] = biological target: T2, HA-OGA-K358R (UniProt O60502); assay: as above
T2 sequence: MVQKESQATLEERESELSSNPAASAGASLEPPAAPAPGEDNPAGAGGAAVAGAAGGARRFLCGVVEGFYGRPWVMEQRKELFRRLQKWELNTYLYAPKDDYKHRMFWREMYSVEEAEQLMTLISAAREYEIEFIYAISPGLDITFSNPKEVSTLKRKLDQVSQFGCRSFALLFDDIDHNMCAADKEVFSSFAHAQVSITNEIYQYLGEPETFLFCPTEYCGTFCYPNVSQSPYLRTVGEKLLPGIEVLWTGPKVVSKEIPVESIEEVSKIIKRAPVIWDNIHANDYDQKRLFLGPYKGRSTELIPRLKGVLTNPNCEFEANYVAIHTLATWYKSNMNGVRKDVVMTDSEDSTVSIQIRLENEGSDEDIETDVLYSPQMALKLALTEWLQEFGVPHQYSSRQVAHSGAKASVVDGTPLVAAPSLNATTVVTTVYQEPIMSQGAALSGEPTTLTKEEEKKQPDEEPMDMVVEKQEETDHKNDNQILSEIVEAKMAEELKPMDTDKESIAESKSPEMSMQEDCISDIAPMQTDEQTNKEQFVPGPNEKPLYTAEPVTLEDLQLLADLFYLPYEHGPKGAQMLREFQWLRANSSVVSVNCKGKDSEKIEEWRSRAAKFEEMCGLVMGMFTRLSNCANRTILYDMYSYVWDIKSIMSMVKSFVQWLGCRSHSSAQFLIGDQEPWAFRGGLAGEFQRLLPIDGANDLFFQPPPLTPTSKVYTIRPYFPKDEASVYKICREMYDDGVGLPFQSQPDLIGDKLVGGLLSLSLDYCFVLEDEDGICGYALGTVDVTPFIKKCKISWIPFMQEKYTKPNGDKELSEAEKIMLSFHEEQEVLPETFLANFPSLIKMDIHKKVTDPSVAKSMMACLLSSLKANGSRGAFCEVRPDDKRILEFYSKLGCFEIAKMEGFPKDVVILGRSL

binding [1]: binds | binding [2]: binds
Substance: Flag-HSC70 (from UniProt P11142 1-646)
